PubChem BioAssay AID1508597 – Cure First, 2020

Purpose: 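Genes whose silencing sensitises or protects ovarian cancer cells against rucaparib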 (primary screen)
Cells: human ovarian carcinoma lines grown from tumours: OCI-P5x (papillary serous) and OCI-C5x (clear cell)
Knock-down reagent: siRNA pool against human genes, 1.25 pmol siRNA per well
Duration: 72 h or 96 h, depending on the cell culture
Challenge: rucaparib 20 µM (about IC30) or vehicle, present until read-out
Rucaparib or vehicle: Rucaparib
Cell line: OCI-P5x (serous)
Read-out: 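Luminescent ATP-based viability assay read 72 or 96 h after transfection, depending on culture, given as normalised percent viability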
Scale: viability, normalised: higher = more viable cells remaining
Rule for the call: 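a well counts as a hit if its normalised viability is under 80 percent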
Meaning of the calls: active = viability under 80%; inactive = viability 80% or more
This is a random part of the about 2,100 reagents, in one setting of the screen. 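Calls flag viability under 80% in either arm, not effects specific to rucaparib; the reference for percent is not stated.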 A number with no mark means an inactive call. Reagent sequences are not shown. Not given: the 100% reference.

{"gene": "CDK4", "technical replicate": "1", "viability, normalised (%)": "77.4 (active)"}
{"gene": "CDK4", "technical replicate": "2", "viability, normalised (%)": 93.6}
{"gene": "CDK4", "technical replicate": "3", "viability, normalised (%)": "76.2 (active)"}
{"gene": "H4C15", "technical replicate": "1", "viability, normalised (%)": "55.4 (active)"}
{"gene": "H4C15", "technical replicate": "2", "viability, normalised (%)": "63.7 (active)"}
{"gene": "H4C15", "technical replicate": "3", "viability, normalised (%)": "48.7 (active)"}
{"gene": "ATF7IP2", "technical replicate": "1", "viability, normalised (%)": "45.6 (active)"}
{"gene": "ATF7IP2", "technical replicate": "2", "viability, normalised (%)": "64.7 (active)"}
{"gene": "ATF7IP2", "technical replicate": "3", "viability, normalised (%)": "71.7 (active)"}
{"gene": "UNG", "technical replicate": "1", "viability, normalised (%)": 110}
{"gene": "UNG", "technical replicate": "2", "viability, normalised (%)": 105}
{"gene": "UNG", "technical replicate": "3", "viability, normalised (%)": 91.7}
{"gene": "PDCD2L", "technical replicate": "1", "viability, normalised (%)": "65.3 (active)"}
{"gene": "PDCD2L", "technical replicate": "2", "viability, normalised (%)": "57.7 (active)"}
{"gene": "PDCD2L", "technical replicate": "3", "viability, normalised (%)": "77.9 (active)"}
{"gene": "GPX4", "technical replicate": "1", "viability, normalised (%)": "49.5 (active)"}
{"gene": "GPX4", "technical replicate": "2", "viability, normalised (%)": "42.1 (active)"}
{"gene": "GPX4", "technical replicate": "3", "viability, normalised (%)": "61 (active)"}
{"gene": "XRCC6", "technical replicate": "1", "viability, normalised (%)": "74.2 (active)"}
{"gene": "XRCC6", "technical replicate": "2", "viability, normalised (%)": 84.9}
{"gene": "XRCC6", "technical replicate": "3", "viability, normalised (%)": 85.4}
